These are yes or no findings as the source states them, for the method shown. Some entries that bind do so weakly or less than the wild type. Where a sequence is shown, tags or fusion partners need not be part of it.
Legend:
[1] = molecular target: GLUT4 exocytic t-SNAREs (syntaxin-4 and His6-tagged SNAP-23) on liposomes (UniProt P70452); test: liposome co-flotation; MBP-tagged peptide (5 μM) incubated 1 h at 4 °C with SNARE liposomes (5 μM SNAREs, 100% phosphatidylcholine) or protein-free liposomes; Nycodenz gradient flotation; floated liposomes analysed by SDS-PAGE, Coomassie blue; both purified
[2] = molecular target: VAMP2 (full-length v-SNARE) on liposomes (UniProt P63044); test: as above

By UniProt entry, the sequences of proteins in these tests, tags left out. Where a name states a change or a piece, a line headed by the entry shows the natural chain unless it says otherwise.
UniProt P70452: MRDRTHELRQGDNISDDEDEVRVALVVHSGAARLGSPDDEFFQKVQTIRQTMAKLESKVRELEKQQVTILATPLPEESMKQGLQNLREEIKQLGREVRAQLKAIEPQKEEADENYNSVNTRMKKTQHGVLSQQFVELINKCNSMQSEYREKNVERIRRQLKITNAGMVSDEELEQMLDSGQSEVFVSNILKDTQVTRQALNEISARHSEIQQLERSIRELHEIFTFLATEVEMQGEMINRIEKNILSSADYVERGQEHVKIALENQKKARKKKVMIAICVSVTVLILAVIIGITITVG
UniProt P63044: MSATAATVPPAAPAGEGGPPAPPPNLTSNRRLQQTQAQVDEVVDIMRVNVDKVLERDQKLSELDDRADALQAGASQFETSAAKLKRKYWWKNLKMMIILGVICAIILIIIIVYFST

LTQLMKKMPHFRKQISKQVVHLNLA (domain or fragment) [MBP-tagged SLP (aa. 327–351 of Munc18c)] was tested, and the binding [1] was “binds” and the binding [2] was “no binding (tested: 5 μM SNAREs and 5 μM MBP-tagged peptide)”.
